Drawing on patent publication EP3791713A1, this text covers binding for two molecules.

No constants are given. Whether binding was seen depends on the method and setting. Some results given as binding are weak or reduced against the parent protein; the word gives no strength.

In the assay the target is T1, Mp10 (SEQ ID NO:4), factor of Myzus persicae, a member of the OS-D superfamily (Myzus persicae).
T1 sequence: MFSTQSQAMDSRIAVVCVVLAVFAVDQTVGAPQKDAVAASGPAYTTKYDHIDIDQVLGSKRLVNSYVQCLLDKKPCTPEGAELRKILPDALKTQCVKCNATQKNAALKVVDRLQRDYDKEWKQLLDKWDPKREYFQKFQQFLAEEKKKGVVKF
Nature of the assay: yeast two-hybrid.

B1: BvAMSH2 protein (SEQ ID NO:2), Beta vulgaris AMSH2, wild type (protein)
chain: MVTHYPSAPISCTEVPPNAGQVSQVTAADSRYAYSDSAIHVLKNVHISAQLTDDFLELARNNTNNDLETCGVLGASLKEETFYATTLIIPKQKSTSSSCQALREEEIFNIQNDRSLFPVGWIHTHPSQSCFMSSIDLHTQYPYQVMVPEAIAIVVAPTDKTRNYGIFRLTDPSGMNVVKECEENGFHPHRDSTDGRPLYEQCSHVYINPNLRFEIFDLR
In the case of B1, the binding entry is on record as “binds”.

B2: Beta vulgaris AMSH2 V72I mutant (protein)
chain: MVTHYPSAPISCTEVPPNAGQVSQVTAADSRYAYSDSAIHVLKNVHISAQLTDDFLELARNNTNNDLETCGILGASLKEETFYATTLIIPKQKSTSSSCQALREEEIFNIQNDRSLFPVGWIHTHPSQSCFMSSIDLHTQYPYQVMVPEAIAIVVAPTDKTRNYGIFRLTDPSGMNVVKECEENGFHPHRDSTDGRPLYEQCSHVYINPNLRFEIFDLR
Consider B2, for which the binding result was “binds”.
